Article doi:10.1101/2020.04.17.046268
These are yes or no findings as the source states them, for the method shown. In cells and extracts the contact can be indirect. Here binding means that the protein was enriched with, or labelled near, the bait; the list need not be complete.

Protein sequences, listed by entry. Tags and fused reporters are not part of them.
UniProt O75362: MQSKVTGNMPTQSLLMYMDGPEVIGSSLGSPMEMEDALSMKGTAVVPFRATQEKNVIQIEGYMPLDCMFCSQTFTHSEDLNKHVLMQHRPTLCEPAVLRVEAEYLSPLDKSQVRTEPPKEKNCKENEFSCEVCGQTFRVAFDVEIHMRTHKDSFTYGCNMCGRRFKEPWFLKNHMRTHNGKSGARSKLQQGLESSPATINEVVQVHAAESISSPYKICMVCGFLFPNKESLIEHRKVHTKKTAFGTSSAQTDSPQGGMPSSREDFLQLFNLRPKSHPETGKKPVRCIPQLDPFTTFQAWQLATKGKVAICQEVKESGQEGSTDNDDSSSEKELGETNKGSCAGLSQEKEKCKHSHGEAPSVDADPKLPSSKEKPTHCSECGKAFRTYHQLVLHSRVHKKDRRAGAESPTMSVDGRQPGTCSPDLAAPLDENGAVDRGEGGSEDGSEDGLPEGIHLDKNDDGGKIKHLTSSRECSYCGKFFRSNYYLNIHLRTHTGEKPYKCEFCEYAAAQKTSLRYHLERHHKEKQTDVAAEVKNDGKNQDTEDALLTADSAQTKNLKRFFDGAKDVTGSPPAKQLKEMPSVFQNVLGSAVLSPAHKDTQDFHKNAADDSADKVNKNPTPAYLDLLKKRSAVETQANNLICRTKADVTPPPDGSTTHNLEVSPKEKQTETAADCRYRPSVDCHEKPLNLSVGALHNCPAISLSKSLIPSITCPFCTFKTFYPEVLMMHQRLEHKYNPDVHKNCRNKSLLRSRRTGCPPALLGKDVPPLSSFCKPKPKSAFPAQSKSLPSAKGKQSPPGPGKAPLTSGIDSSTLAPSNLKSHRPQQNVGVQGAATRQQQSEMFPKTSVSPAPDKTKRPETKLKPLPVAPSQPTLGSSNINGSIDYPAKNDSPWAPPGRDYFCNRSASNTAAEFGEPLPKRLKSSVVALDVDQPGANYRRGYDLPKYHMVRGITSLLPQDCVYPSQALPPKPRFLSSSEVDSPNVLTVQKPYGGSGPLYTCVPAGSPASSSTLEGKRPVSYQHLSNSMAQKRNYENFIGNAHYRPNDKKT

Molecular target: CTBP2 (C-terminal binding protein 2) (human (endogenous in BTSC lines, SNB19, LN229)) (UniProt P56545)
Assay: affinity purification with mass spectrometry

Row | binding | Substance
1 | binds | HDAC2 (histone deacetylase 2) (from UniProt Q92769 1-488) (enzyme)
2 | binds | ZNF217 (from UniProt O75362 1-1048)
